The other results are listed elsewhere or left out.
Assays:
Assay in all cases: log2 fold change, soluble protein after heating vs DMSO (PISA); higher = thermal stabilisation; K562 lysate, 10 uM; active = over 0.2 and 3.5 SD of the protein, either way, in both replicates (recomputed)
[1] = compound: CCCS(=O)(=O)Nc1ccc(F)c(C(=O)c2c[nH]c3ncc(-c4ccc(Cl)cc4)cc23)c1F [vemurafenib]
Method in brief: (§1)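 Quantification was by TMTpro 16plex LC-MS/MS with equalised channel sums, applied to the supernatant after 21,000xg for 90 min. Samples were crude K562 extract at 1 mg/mL protein in PBS pH 7.4 with 1 mM MgCl2, treated with 10 μM compound for 30 min, heated for 3 min across 48°C-58°C, pooled and brought to 0.5% NP-40 at 4°C. Values are log-two fold changes in thermal stability relative to solvent controls, from duplicates.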

By UniProt entry, the sequences of proteins in these tests, tags left out. Where a name states a change or a piece, a line headed by the entry shows the natural chain unless it says otherwise.
UniProt P00846: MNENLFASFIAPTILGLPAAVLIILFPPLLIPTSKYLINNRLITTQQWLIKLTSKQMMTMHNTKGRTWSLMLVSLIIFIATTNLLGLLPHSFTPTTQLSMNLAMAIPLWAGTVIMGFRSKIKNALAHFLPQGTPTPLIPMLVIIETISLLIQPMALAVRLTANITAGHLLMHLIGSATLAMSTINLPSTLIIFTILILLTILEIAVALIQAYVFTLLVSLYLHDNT
UniProt Q99707: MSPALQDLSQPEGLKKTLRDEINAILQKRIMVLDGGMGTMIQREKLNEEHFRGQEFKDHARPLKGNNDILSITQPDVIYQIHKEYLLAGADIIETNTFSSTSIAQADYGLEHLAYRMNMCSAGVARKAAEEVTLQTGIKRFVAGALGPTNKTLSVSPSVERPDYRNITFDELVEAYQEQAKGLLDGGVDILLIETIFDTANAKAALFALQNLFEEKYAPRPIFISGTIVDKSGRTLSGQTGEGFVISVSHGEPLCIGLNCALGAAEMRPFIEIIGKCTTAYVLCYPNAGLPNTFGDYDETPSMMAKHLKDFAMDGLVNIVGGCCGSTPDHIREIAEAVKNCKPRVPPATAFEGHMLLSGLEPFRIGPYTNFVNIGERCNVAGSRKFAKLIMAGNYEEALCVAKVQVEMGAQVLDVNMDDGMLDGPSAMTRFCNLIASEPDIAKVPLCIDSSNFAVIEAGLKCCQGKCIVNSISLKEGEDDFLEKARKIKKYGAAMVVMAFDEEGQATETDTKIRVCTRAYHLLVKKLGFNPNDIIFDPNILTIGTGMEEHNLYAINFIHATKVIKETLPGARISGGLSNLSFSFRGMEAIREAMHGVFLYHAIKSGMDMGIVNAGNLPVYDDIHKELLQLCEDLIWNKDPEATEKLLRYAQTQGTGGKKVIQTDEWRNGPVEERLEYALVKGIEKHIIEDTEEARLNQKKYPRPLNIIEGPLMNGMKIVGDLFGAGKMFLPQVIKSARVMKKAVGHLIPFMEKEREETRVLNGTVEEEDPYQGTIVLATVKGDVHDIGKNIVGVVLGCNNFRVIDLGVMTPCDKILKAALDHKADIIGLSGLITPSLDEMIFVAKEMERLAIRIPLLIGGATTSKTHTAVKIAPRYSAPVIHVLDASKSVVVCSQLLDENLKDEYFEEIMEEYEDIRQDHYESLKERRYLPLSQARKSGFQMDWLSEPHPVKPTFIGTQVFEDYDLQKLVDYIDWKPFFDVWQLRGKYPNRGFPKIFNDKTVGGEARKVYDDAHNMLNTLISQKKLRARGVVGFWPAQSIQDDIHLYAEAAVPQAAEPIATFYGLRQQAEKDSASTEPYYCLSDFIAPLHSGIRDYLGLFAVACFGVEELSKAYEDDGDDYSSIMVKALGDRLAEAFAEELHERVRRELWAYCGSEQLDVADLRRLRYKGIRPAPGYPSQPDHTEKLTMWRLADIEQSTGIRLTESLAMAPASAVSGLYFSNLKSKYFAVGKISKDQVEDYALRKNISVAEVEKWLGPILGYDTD
UniProt Q9P0P8: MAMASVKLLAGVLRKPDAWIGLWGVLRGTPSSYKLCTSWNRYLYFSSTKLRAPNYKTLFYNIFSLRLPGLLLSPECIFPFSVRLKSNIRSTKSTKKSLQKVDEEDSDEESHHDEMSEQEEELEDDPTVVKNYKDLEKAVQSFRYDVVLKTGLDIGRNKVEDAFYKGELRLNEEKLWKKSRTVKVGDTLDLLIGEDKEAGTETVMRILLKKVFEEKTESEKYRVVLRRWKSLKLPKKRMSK
UniProt Q765P7: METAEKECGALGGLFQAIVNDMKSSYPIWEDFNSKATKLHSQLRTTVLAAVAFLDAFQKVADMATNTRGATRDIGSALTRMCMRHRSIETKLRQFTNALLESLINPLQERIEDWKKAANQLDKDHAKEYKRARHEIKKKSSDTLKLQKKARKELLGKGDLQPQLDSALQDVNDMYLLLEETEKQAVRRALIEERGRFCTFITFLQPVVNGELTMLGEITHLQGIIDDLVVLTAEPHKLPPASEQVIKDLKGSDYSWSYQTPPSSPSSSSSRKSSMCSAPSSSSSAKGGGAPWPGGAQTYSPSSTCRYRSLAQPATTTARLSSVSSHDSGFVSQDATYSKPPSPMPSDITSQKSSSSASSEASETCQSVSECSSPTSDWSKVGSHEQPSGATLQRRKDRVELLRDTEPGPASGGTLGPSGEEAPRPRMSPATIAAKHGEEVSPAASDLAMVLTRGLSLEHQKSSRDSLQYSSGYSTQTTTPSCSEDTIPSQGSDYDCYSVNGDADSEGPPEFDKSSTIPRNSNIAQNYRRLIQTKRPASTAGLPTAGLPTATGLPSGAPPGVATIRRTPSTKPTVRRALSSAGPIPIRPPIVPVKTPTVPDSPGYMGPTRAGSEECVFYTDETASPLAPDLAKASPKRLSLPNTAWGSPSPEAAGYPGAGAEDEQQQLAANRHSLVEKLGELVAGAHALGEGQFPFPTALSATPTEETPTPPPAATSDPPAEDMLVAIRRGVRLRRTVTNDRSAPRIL
UniProt Q9UDX5: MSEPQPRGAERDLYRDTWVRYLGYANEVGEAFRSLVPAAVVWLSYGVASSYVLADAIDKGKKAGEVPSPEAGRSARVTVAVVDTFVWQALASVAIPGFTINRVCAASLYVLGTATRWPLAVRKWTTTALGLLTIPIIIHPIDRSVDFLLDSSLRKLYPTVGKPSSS
UniProt Q9Y4B5: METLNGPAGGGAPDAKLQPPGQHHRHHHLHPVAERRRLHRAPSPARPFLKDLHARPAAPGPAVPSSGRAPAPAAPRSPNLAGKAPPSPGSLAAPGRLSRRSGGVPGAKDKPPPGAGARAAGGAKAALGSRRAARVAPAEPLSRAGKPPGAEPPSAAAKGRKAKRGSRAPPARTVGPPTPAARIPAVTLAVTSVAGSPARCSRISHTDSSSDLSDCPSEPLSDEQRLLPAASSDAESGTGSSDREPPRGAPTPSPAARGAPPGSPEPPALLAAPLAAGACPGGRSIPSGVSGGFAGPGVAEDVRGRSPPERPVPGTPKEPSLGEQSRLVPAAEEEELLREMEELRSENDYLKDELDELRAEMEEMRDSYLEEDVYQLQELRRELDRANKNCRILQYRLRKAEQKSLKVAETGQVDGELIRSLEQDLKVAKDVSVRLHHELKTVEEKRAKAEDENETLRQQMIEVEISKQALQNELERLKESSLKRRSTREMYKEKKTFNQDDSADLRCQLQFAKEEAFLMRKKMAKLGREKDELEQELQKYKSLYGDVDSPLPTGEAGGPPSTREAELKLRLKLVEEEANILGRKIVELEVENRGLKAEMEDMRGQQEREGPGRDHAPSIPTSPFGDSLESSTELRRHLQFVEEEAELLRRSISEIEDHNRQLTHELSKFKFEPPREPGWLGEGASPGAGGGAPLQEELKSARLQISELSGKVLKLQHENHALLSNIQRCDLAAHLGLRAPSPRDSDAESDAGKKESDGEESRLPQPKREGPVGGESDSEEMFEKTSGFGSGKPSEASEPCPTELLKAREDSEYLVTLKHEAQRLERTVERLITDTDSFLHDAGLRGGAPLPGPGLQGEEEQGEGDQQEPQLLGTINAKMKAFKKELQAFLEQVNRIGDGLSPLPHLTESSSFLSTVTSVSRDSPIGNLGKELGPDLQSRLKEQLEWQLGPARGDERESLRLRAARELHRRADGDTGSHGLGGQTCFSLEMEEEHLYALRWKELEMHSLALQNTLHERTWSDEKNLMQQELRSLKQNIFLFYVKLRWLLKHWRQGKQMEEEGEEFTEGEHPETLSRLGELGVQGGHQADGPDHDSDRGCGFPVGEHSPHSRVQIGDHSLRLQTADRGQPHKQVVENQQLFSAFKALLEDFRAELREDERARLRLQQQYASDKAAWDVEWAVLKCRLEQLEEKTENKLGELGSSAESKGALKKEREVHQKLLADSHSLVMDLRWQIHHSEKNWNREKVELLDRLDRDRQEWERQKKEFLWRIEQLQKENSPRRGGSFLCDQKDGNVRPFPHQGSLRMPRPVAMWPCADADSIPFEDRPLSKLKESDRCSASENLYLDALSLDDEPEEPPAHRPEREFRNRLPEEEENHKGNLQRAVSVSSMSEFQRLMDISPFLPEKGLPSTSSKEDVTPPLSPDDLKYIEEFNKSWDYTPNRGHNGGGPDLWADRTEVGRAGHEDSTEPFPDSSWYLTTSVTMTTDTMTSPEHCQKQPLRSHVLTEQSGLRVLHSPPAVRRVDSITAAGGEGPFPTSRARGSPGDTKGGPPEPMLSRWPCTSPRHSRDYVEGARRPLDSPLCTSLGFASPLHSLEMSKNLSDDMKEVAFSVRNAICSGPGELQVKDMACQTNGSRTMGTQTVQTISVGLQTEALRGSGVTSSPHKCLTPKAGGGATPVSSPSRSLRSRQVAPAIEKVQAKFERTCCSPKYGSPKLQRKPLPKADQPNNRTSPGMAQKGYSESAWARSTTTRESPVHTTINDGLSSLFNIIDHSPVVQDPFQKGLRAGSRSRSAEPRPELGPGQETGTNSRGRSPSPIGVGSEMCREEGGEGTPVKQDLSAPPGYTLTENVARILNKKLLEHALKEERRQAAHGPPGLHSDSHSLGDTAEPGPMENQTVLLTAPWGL
UniProt Q9Y3D2: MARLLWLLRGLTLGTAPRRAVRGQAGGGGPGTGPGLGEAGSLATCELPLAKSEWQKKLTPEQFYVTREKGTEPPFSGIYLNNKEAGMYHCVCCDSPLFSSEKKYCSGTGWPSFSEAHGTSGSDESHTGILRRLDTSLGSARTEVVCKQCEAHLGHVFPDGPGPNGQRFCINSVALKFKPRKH
UniProt Q9NZJ7, whole entry, looked up: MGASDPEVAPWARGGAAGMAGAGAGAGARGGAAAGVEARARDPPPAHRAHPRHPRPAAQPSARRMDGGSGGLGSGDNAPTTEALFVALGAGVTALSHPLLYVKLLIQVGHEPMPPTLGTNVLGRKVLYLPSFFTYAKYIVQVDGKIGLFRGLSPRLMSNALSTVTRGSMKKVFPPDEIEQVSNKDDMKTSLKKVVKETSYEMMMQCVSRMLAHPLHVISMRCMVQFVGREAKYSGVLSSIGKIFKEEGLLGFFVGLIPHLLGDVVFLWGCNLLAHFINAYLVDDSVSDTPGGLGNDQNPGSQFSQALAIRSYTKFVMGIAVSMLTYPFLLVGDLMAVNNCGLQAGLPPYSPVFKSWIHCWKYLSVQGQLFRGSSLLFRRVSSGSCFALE

[2] = compound: CCCS(=O)(=O)Nc1ccc(F)c(C(=O)c2c[nH]c3ncc(Cl)cc23)c1F
Method in brief: as §1

[3] = compound: CCN(CCCOc1ccc2c(Nc3cc(CC(=O)Nc4cccc(F)c4)[nH]n3)ncnc2c1)CCOP(=O)(O)O [barasertib]
Method in brief: as §1

[4] = compound: CC[C@@H]1C(=O)N(C)c2cnc(Nc3ccc(C(=O)NC4CCN(C)CC4)cc3OC)nc2N1C1CCCC1
Method in brief: as §1

[5] = compound: CC[C@@H]1C(=O)N(C)c2cnc(Nc3ccc(C(=O)N[C@H]4CC[C@H](N5CCN(CC6CC6)CC5)CC4)cc3OC)nc2N1C(C)C [volasertib]
Method in brief: as §1

[6] = compound: CCn1c(C(=O)N(C2CC2)C2CC2)cc2c3c(ncn3C)c(Nc3cc(C)n(C)n3)nc21
Method in brief: as §1

[7] = compound: CCn1cc(-c2ccnc3[nH]c(-c4cccc(CN(C)C)c4)cc23)c(-c2ccc(NC(=O)N(C)C)cc2)n1
Method in brief: as §1

[8] = compound: CN1CCC(CNc2ccc3ncc(-c4cccc(OC(F)(F)F)c4)n3n2)CC1
Method in brief: as §1

[9] = compound: CN1CCN(CCOc2cc(OC3CCOCC3)c3c(Nc4c(Cl)ccc5c4OCO5)ncnc3c2)CC1 [saracatinib]
Method in brief: as §1

[10] = compound: CN1CCN(c2nc(C3=C(c4c[nH]c5ccccc45)C(=O)NC3=O)c3ccccc3n2)CC1 [sotrastaurin]
Method in brief: as §1

[11] = compound: CN1CC[C@H](c2c(O)cc(O)c3c(=O)cc(-c4ccccc4Cl)oc23)[C@H](O)C1 [alvocidib]
Method in brief: as §1

[12] = compound: CN1CCc2c(c3ccccc3n2Cc2ccc(C(=O)NO)cc2)C1 [Tubastatin A]
Method in brief: as §1

[13] = compound: CNC(=O)C1=CC=CC=C1NC2=NC(=NC=C2Cl)NC3=C(C=C(C=C3)N4CCOCC4)OC
Method in brief: as §1

[14] = compound: CNC(=O)c1ccc(Nc2ncc(C(F)(F)F)c(NCc3nccnc3N(C)S(C)(=O)=O)n2)cc1 [defactinib]
Method in brief: as §1

[15] = compound: CNc1nc(-c2ccc3c(N)n[nH]c3c2)cc(N2C[C@@H](C(=O)NC3CCCCC3)CC[C@H]2C)n1
Method in brief: as §1

[16] = compound: COC(=O)N[C@@H](C)CNc1nccc(-c2cn(C(C)C)nc2-c2cc(Cl)cc(NS(C)(=O)=O)c2F)n1 [encorafenib]
Method in brief: as §1

[17] = compound: COC(=O)[C@H](CCSC)NC(=O)C1=C(C=C(C=C1)NC[C@H](CS)N)C2=CC=CC=C2
Method in brief: as §1

[18] = compound: COc1cc(Nc2ncc3c(n2)-c2ccc(Cl)cc2C(c2c(F)cccc2OC)=NC3)ccc1C(=O)O [alisertib]
Method in brief: as §1

[19] = compound: COc1cc2nc(-c3cc(F)ccc3O)nc(N[C@@H]3CNC[C@H]3C(C)(C)O)c2cc1OC
Method in brief: as §1

[20] = compound: COc1cc2ncnc(Nc3ccc(F)c(Cl)c3)c2cc1OCCCN1CCOCC1 [gefitinib]
Method in brief: as §1

Measured: log2 fold change

MTDH (UniProt E5RJU9)
inactive: [1] 0.133 | [2] -0.307 | [3] -0.102 | [4] -0.018 | [5] -0.185 | [6] 0.053 | [7] -0.133 | [8] -0.051 | [9] 0.063 | [10] 0.102 | [11] 0.041 | [12] 0.149 | [13] -0.054 | [14] 0.033 | [15] 0.186 | [16] 0.192 | [17] -0.011 | [18] -0.013 | [19] -0.015 | [20] 0.238

MT-ATP6 (UniProt P00846)
inactive: [1] -0.096 | [2] -0.026 | [3] 0.288 | [4] -0.095 | [5] -0.009 | [6] 0.404 | [7] -0.081 | [8] 0.078 | [9] -0.13 | [10] -0.023 | [11] -0.017 | [12] -0.012 | [13] 0.002 | [14] 0.055 | [15] -0.013 | [16] -0.099 | [17] -0.074 | [18] -0.069 | [19] 0.025 | [20] 0

MTR (UniProt Q99707)
inactive: [1] 0.036 | [2] 0.064 | [3] 0.022 | [4] 0.022 | [5] -0.032 | [6] -0.009 | [7] -0.09 | [8] -0.009 | [9] 0.014 | [10] 0.045 | [11] 0.001 | [12] -0.069 | [13] -0.011 | [14] 0.026 | [15] 0.001 | [16] -0.002 | [17] 0.076 | [18] 0.004 | [19] -0.02 | [20] 0.008

MRPL35 (UniProt Q9NZE8)
inactive: [1] 0.091 | [2] -0.001 | [3] 0.021 | [5] 0.013 | [6] 0.005 | [7] -0.124 | [8] -0.011 | [9] 0.04 | [10] -0.019 | [11] 0.057 | [12] -0.226 | [13] 0.01 | [14] 0.014 | [15] 0.033 | [18] 0.01 | [19] -0.072 | [20] 0.009

MRPL9 (UniProt Q9BYD2)
inactive: [1] 0.02 | [2] -0.025 | [3] 0.063 | [4] 0.055 | [5] 0.055 | [6] -0.032 | [7] 0.071 | [8] -0.097 | [9] 0.034 | [10] 0.032 | [11] 0.027 | [12] -0.019 | [13] 0.048 | [14] 0.035 | [15] 0.072 | [16] -0.04 | [17] 0.055 | [18] 0.023 | [19] 0.014 | [20] 0.008

MTRES1 (UniProt Q9P0P8)
inactive: [1] -0.055 | [2] 0.018 | [3] -0.038 | [4] -0.189 | [5] -0.061 | [6] 0 | [9] -0.088 | [10] 0.011 | [12] 0.005 | [13] -0.003 | [14] 0.018 | [15] 0.004 | [16] 0.038 | [17] -0.111 | [18] 0.091 | [19] -0.049 | [20] 0.037

MTSS2 (UniProt Q765P7)
inactive: [1] 0.022 | [2] 0 | [3] 0.047 | [4] 0.033 | [5] 0.011 | [6] -0.021 | [7] -0.035 | [8] 0.009 | [9] 0.022 | [10] -0.042 | [11] -0.005 | [12] 0.058 | [13] 0.073 | [14] 0.028 | [15] -0.018 | [16] -0.022 | [17] 0.033 | [18] 0.033 | [19] 0 | [20] 0.025

MRPS14 (UniProt O60783)
inactive: [1] 0.395 | [2] 0.012 | [3] -0.088 | [4] 0.023 | [5] 0.007 | [6] 0.007 | [7] 0.011 | [8] 0.133 | [10] -0.065 | [11] 0.043 | [12] -0.037 | [14] 0.068 | [16] 0 | [17] -0.049 | [18] 0.155 | [19] 0.102 | [20] -0.042

MRPS18B (UniProt Q9Y676)
inactive: [1] 0.084 | [2] 0.05 | [3] 0.055 | [4] 0.02 | [5] -0.007 | [6] -0.15 | [7] 0.004 | [8] -0.071 | [9] 0.093 | [10] -0.13 | [11] -0.061 | [12] 0.008 | [13] 0.052 | [14] 0.028 | [15] 0.019 | [16] -0.039 | [17] -0.126 | [18] 0.017 | [19] -0.01 | [20] -0.076

MRPS28 (UniProt Q9Y2Q9)
inactive: [1] -0.039 | [2] -0.039 | [3] -0.02 | [4] -0.015 | [5] 0.004 | [6] 0.017 | [7] 0.154 | [8] -0.08 | [9] -0.011 | [10] 0.013 | [11] 0.038 | [12] 0.029 | [13] 0.028 | [14] 0.015 | [15] -0.057 | [16] 0.036 | [17] -0.086 | [18] -0.012 | [19] -0.013 | [20] -0.003

MTFP1 (UniProt Q9UDX5)
active: [7] -0.421
inactive: [1] -0.025 | [2] 0.031 | [3] 0.012 | [4] 0.036 | [5] 0.041 | [6] 0.061 | [8] 0.041 | [9] -0.042 | [10] 0.004 | [11] -0.087 | [12] -0.006 | [13] 0.053 | [14] 0.145 | [15] 0.007 | [16] -0.037 | [17] 0.102 | [18] -0.032 | [19] 0.003 | [20] -0.011

Quoted at random: 2 records from the list.
MTRES1 (UniProt Q9P0P8)
inactive: [1] -0.055 | [2] 0.018 | [3] -0.038 | [4] -0.189 | [5] -0.061 | [6] 0 | [9] -0.088 | [10] 0.011 | [12] 0.005 | [13] -0.003 | [14] 0.018 | [15] 0.004 | [16] 0.038 | [17] -0.111 | [18] 0.091 | [19] -0.049 | [20] 0.037

MRPS14 (UniProt O60783)
inactive: [1] 0.395 | [2] 0.012 | [3] -0.088 | [4] 0.023 | [5] 0.007 | [6] 0.007 | [7] 0.011 | [8] 0.133 | [10] -0.065 | [11] 0.043 | [12] -0.037 | [14] 0.068 | [16] 0 | [17] -0.049 | [18] 0.155 | [19] 0.102 | [20] -0.042

Further entries

MRPL54 (UniProt Q6P161)
inactive: [1] 0.011 | [2] -0.014 | [3] -0.042 | [4] 0.064 | [5] -0.006 | [6] 0.024 | [7] 0.082 | [8] -0.043 | [9] 0.022 | [10] 0.01 | [11] 0.001 | [12] -0.002 | [13] 0.033 | [14] 0.004 | [15] -0.006 | [16] -0.003 | [17] -0.103 | [18] 0.006 | [19] 0.005 | [20] -0.013

MTCL1 (UniProt Q9Y4B5)
inactive: [1] 0.11 | [2] -0.035 | [3] 0.089 | [4] 0.055 | [5] -0.054 | [6] -0.079 | [9] 0.003 | [10] 0.041 | [12] -0.056 | [13] -0.063 | [14] -0.039 | [15] 0.101 | [16] -0.014 | [17] 0.051 | [19] -0.017

MT-CO1 (UniProt P00395)
inactive: [1] -0.117 | [2] 0.037 | [3] 0.032 | [4] -0.044 | [5] 0.073 | [6] 0.005 | [7] -0.157 | [8] 0.14 | [9] 0.041 | [10] 0.001 | [11] 0.069 | [12] 0.078 | [13] 0.102 | [14] -0.001 | [15] 0.126 | [16] -0.037 | [17] 0.033 | [18] 0.039 | [19] -0.016 | [20] -0.097

MSRB2 (UniProt Q9Y3D2)
inactive: [1] 0.063 | [2] -0.06 | [3] -0.037 | [4] 0.148 | [5] 0.016 | [6] -0.025 | [7] -0.236 | [8] -0.054 | [9] 0.058 | [10] -0.016 | [11] 0.056 | [12] 0.033 | [13] 0.014 | [14] 0.035 | [15] 0.033 | [16] 0.148 | [17] -0.067 | [18] -0.017 | [19] 0.136 | [20] 0.021

MRPL53 (UniProt Q96EL3)
inactive: [1] -0.006 | [2] -0.01 | [3] 0.032 | [4] 0.069 | [5] 0.057 | [6] -0.017 | [7] 0.013 | [8] -0.019 | [9] -0.003 | [10] -0.021 | [11] 0.005 | [12] -0.048 | [13] -0.02 | [14] 0.051 | [15] -0.048 | [16] -0.036 | [18] 0.049 | [19] 0 | [20] -0.048
active: [17] -0.226

MTCH1 (UniProt Q9NZJ7)
inactive: [1] 0.07 | [2] 0.003 | [3] -0.015 | [4] 0.022 | [5] 0.027 | [6] -0.047 | [7] -0.208 | [8] 0.07 | [9] 0.001 | [10] -0.022 | [11] -0.055 | [12] 0.044 | [13] 0.063 | [14] -0.031 | [15] -0.003 | [16] -0.042 | [17] 0.025 | [18] -0.012 | [19] -0.008 | [20] -0.017

— the supplement of paper PMC10849652
